# Among all 320,000 compounds or so, about 2,100 (0.66%) were called active. Inconclusive results, whose numbers are uncertain, are shown with a selection of clear calls. Calls follow the shape of the dose curve; as a rule, active = well fitted inhibition curve with a large enough effect in the signal ratio, with a control signal flat (not every such curve was filed as active); inconclusive = small, poorly fitted or top-dose-only effect, or effect the other way, or a change in a side signal; inactive = flat fitted curve, though single readings scatter; the % refers to the signal ratio. Potencies beside an inconclusive call are fits to weak or partial responses and may not hold up.
# Experiment: qHTS Assay for Lipid Storage Modulators in Drosophila S3 Cells
# Details: BODIPY lipid droplet fluorescence, 18-24 h, cells fed with added oleic acid; lipid storage change, negative = inhibition: at 46.1 µM (top of the series) unless noted
# How it was run: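 Drosophila S3 cells got compounds at several concentrations plus oleic acid (400 uM solution). Laser-scanning cytometry with 488 nm excitation read lipid droplets at 500-530 nm and cells at 575-640 nm. Percent activity was relative to 20 uM Triacsin C.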
# % is scaled to controls: 0 for no effect and ±100 for the full control effect; potency is read from the fitted curve at half-maximal effect.
Structure (SMILES),"lipid storage change, negative = inhibition",outcome,Potency
COc1ccc(/C=C2/SC(=O)N(CCC(=O)Nc3ccccc3C(=O)O)C2=S)cc1,inconclusive: 23%,,
Cc1nn(C)cc1C(N)=O,inconclusive: -17.3%,,
CCCCc1nc2sc3c(c2c(=O)[nH]1)CCC3,inconclusive: 5.9%,,
Cc1ccc(C(=O)N2CC=C(c3ccccc3)CC2)o1,inconclusive: 14.7%,,
O=[N+]([O-])C(C1CCS(=O)(=O)C1)C1CCS(=O)(=O)C1 (stereo unspecified),inconclusive: -19.3%,,
CSc1cccc(CN2CCCC(C(=O)Nc3cccc(-n4cccn4)c3)C2)c1 (stereo unspecified),inconclusive: 152%,,
CC(C)(C)C(=O)CN1C2=NCCCN2c2ccccc21,inconclusive: 12.8%,,
N=C1C(=O)OCC1c1ccccc1NC(=O)c1ccc(F)cc1 (stereo unspecified),,inactive [at 46.1 µM],
O=C(c1ccc(CSc2ccc(Cl)cc2)cc1)N1CCCC1,inconclusive: 23.5%,,
COc1ccc(C)cc1NC(=O)CN(c1ccccc1F)S(C)(=O)=O,inconclusive: -1.5%,,
CCCCn1c(N)c(N(CCC(C)C)C(=O)C2CCCN(C(=O)c3ccc(Cl)cc3)C2)c(=O)[nH]c1=O (stereo unspecified),inconclusive,,
COc1ccc(N(C(=O)CNC(=O)c2ccco2)C(C(=O)NC2CCCCC2)c2ccncc2)cc1 (stereo unspecified),,,"inconclusive: 2.06 µM [activator, partial curve]"
O=C(c1ccco1)N1CCN(C(=O)c2cc3c(s2)-c2ccccc2OC3)CC1,inconclusive: -7.47%,,
COc1ccc(CN2CCN(C(=O)CC(C)C)CC2)cc1Br,inconclusive: 36.9%,,
CCC(Sc1ncccc1C(=O)OCCN1CCCC1=O)C(=O)NCc1ccco1 (stereo unspecified),inconclusive: 23.9%,,
COc1ccc2c(c1)c(=O)c(C(=O)c1ccc(Cl)cc1)cn2CC(=O)Nc1ccc(F)cc1,inconclusive: 13.5%,,
COc1ccc(N2CCN(CC(O)COCCOc3ccc(Br)cc3)CC2)cc1 (stereo unspecified),inconclusive: 24.4%,,
COC(=O)c1ccc(NC(=O)CNC(=O)C2CCCCC2)cc1,inconclusive: -7.22%,,
C=CCN(CC=C)CCOc1ccccc1[N+](=O)[O-],inconclusive: 29.7% [at 9.22 µM],,
CCOC(=O)c1ccc(NC(=O)c2cc(F)c(F)cc2Cl)cc1,inconclusive: 40.4%,,
Cc1c(NC(=O)C(C)NCC2CCCO2)c(=O)n(-c2ccccc2)n1C (stereo unspecified),inconclusive: 7.21%,,
CC(=O)N1c2ccc(S(=O)(=O)N3CCCC3C(=O)NCc3ccccc3Cl)cc2CC1C (stereo unspecified),inconclusive: -10.2%,,
C=CCOc1ccc(C2=NOC(C(=O)Nc3ccc4c(c3)OCCO4)C2)cc1OC (stereo unspecified),inconclusive: 18.6%,,
CCC(C)NC(=O)CN1C(=O)CSc2ccc(S(=O)(=O)N3CCCC3)cc21 (stereo unspecified),inconclusive: 20.5%,,
O=C(NCCCN1CCN(c2ccccc2)CC1)C1CCCN(c2ncnc3c2nc2n3CCCCC2)C1 (stereo unspecified),inconclusive: -74.7%,,
O=C(Nc1ccccc1)C1CCCN(C(=O)c2ccc(F)cc2)C1 (stereo unspecified),inconclusive: 7.02%,,

# Retrieved by structure from the list above:
Structure (SMILES),"lipid storage change, negative = inhibition",outcome,Potency
Cc1nn(C)cc1C(N)=O,inconclusive: -17.3%,,
COc1ccc(N2CCN(CC(O)COCCOc3ccc(Br)cc3)CC2)cc1 (stereo unspecified),inconclusive: 24.4%,,
COC(=O)c1ccc(NC(=O)CNC(=O)C2CCCCC2)cc1,inconclusive: -7.22%,,
O=C(NCCCN1CCN(c2ccccc2)CC1)C1CCCN(c2ncnc3c2nc2n3CCCCC2)C1 (stereo unspecified),inconclusive: -74.7%,,

# Further records.

Structure (SMILES),"lipid storage change, negative = inhibition",outcome,Potency
COc1cc(/C=C/[N+](=O)[O-])ccc1OC(=O)c1cc2ccccc2oc1=O,,,"inconclusive: 4.11 µM [falling, full curve, poor fit]"
CCN(CC)S(=O)(=O)c1cccc(C(=O)NNC(=O)C2=NN(c3ccccc3)C(=O)CC2)c1,,,"inconclusive: 9.2 µM [activator, partial curve]"
CCN(Cc1ccc(O)cc1)CC1CCCN(CCc2cccc(F)c2)C1 (stereo unspecified),inconclusive: -8.27%,,
COc1cc2c(cc1OC)CN(c1ccc([N+](=O)[O-])cc1Cl)CC2,,,"inconclusive: 9.2 µM [activator, partial curve, poor fit]"
CCn1c(SCC(=O)Nc2ccccc2)nnc1-c1cccs1,inconclusive: 1.08%,,
O=C(Cc1ccccc1)c1c[nH]c(C(=O)NCc2ccncc2)c1,inconclusive: 11.8%,,
N#Cc1c2n(c3c(=O)[nH]cnc13)CCCC2,,,"inconclusive: 0.116 µM [activator, full curve, poor fit]"
O=C(N/C(=C/c1ccc(Br)cc1)C(=O)N1CCCC1)c1ccccc1F,inconclusive: 29.4%,,
Cc1cc(C)nc(N2CCCC(C(=O)Nc3ccc4c(c3)OCO4)C2)n1 (stereo unspecified),,,"inconclusive: 1.46 µM [activator, partial curve]"
Cc1ccc(NC(=O)C2CCCN2S(=O)(=O)c2ccc3c(c2)n(C)c(=O)c(=O)n3C)cc1 (stereo unspecified),inconclusive: 0.666%,,
O=C(CN1C(=O)NC2(CCc3ccccc32)C1=O)Nc1ccccc1C(F)(F)F (stereo unspecified),,,"inconclusive: 0.731 µM [activator, partial curve, poor fit]"
Cn1c(CC(=O)Nc2ccccc2)nnc1SCC(=O)Nc1ccc(N2CCOCC2)cc1,,,"inconclusive: 29.1 µM [activator, partial curve, poor fit]"
CC(C)CCN(C(=O)c1cc(=O)[nH]c2ccccc12)c1c(N)n(Cc2ccccc2)c(=O)[nH]c1=O,inconclusive: 12.1%,,
CCCn1c(SCCc2ccccc2)nc2c1c(=O)[nH]c(=O)n2C,,,"inconclusive: 29.1 µM [activator, single point]"
COc1cc2c(cc1OC)CN(C(=O)c1cccc(S(=O)(=O)N3CCc4ccccc43)c1)CC2,inconclusive: -81.4%,,
S=c1[nH]c(-c2ccccc2)cn1/N=C/c1cccc2ccccc12,inconclusive: -48.9%,,
COc1cc(/C=N/NC(N)=O)cc([N+](=O)[O-])c1O,inconclusive: -43.9%,,
CCc1ccc(C(=O)NC(=S)Nc2ccc(N3CCOCC3)cc2)cc1,inconclusive: -21.6%,,
CC(C)(C)N(NC(=O)OCc1ccccc1)C(=O)c1ccccc1Cl,,,"inconclusive: 29.1 µM [falling, single point]"
CC(=O)c1c(C)[nH]c(C(=O)OCC(=O)N2CCCC2=O)c1C,,,"inconclusive: 0.58 µM [activator, single point]"
O=C1NC[C@H](c2ccccc2)N(CCc2cccc3ccccc23)C1=O,inconclusive: 22.6%,,
O=C(Nc1ccc(F)cc1)N1CCN(c2nc3ccccc3s2)CC1,,,active: 4.11 µM
CC1=NN(c2cccc(C(=O)O)c2)C(=O)/C1=C\C=C/c1ccccc1,inconclusive: -14.4%,,
CCCCCOC(=O)C1=C(C)NC(=O)NC1c1ccccc1OCC (stereo unspecified),,,"inconclusive: 0.731 µM [activator, full curve, poor fit]"
CC(=O)C(N=Nc1ccccc1)(Sc1nnc(-c2ccccc2)n1-c1ccccc1)C(=O)Nc1ccccc1 (stereo unspecified),,,"inconclusive: 3.66 µM [activator, single point]"
Cc1cc(NC(=O)CN(C)S(=O)(=O)c2ccc(-c3ccc(=O)[nH]n3)s2)ccc1Br,,,"inconclusive: 25.9 µM [activator, single point]"

Structure (SMILES),"lipid storage change, negative = inhibition",outcome,Potency
COC(=O)c1ccc(C23CC4(C2)[C@H](CN(CC2CCCCC2)[C@@H]4c2ccccc2)C3c2ccccc2)cc1 (stereo partly specified),inactive: 11.9%,,
CCCC(=O)NC(C)c1nc2ccccc2[nH]1 (stereo unspecified),inconclusive: -20%,,
CC(=O)c1ccc(OC(=O)/C=C/c2ccccc2)cc1,,,"inconclusive: 0.411 µM [activator, full curve, poor fit]"
CC1=Nc2ccc(C)cc2/C1=C/c1c(N)n2c(S(=O)(=O)C(C)C)nsc2nc1=O,inconclusive: 3.62%,,
Cc1cc([N+](=O)[O-])ccc1NC(=O)C(C)[n+]1ccccc1 (stereo unspecified),inconclusive: -8.6%,,
Cc1cc(C(=O)COC(=O)c2n[nH]c(=O)c3ccccc23)c(C)n1C,inconclusive: -28.1%,,
N/C(=N\OC(=O)c1cc(Cl)ccc1Cl)c1ccccn1,inconclusive: 9.36%,,
Cc1ccc(Nc2cc(=O)[nH]c(=O)[nH]2)cc1Cl,,,"inconclusive: 0.116 µM [falling, full curve]"
CC(C)(C)c1cccc(/C=N/O)c1O,inconclusive: 5.96%,,
CCN(C(=O)CSc1nnc(-c2ccncc2)o1)c1ccccc1,inconclusive: 13.8%,,
CCc1ccccc1NC(=O)CC(O)(C(=O)OC)C(F)(F)F (stereo unspecified),,,"inconclusive: 5.17 µM [falling, single point]"
CC(C)C(C)NC(=O)COc1ccc(OCc2ccccc2)cc1 (stereo unspecified),inconclusive: 8.22%,,
CN(C)CCN=Cc1c(O)n(Cc2ccc3c(c2)OCO3)c(=O)c2ccccc12,inconclusive: 24.5%,,
COC(=O)CSc1nc2cc3c(cc2cc1C)OCO3,inconclusive: 2.85%,,
CS(=O)(=O)N(CC(=O)NCCC1=CCCCC1)c1ccc2c(c1)OCO2,,,"inconclusive: 6.51 µM [falling, single point]"
COc1ccc(NC(=O)C2CCCN(S(=O)(=O)c3cccc4nonc34)C2)c(OC)c1 (stereo unspecified),,,"inconclusive: 4.61 µM [activator, partial curve]"
Cc1cc(C)cc(NC(=O)[C@H](Cc2c[nH]c3ccccc23)NC(=O)[C@@H]2Cc3ccccc3CN2)c1,,,"inconclusive: 16.4 µM [falling, single point]"
Cc1ccc(C(=O)Nc2cccc(C(=O)NCc3ccccc3)c2)cc1,inconclusive: 43.6%,,
O=C(CCC(=O)NC12CC3CC(CC(C3)C1)C2)NC1CCCCC1,inconclusive: -16.3%,,
c1ccc2c(-n3cccn3)cccc2c1,inconclusive: 10.1%,,
Brc1ccc(-c2nc(-c3ccncc3)no2)cc1,inconclusive: 7.17%,,
O=C(NCCCCNC(=O)c1ccccc1Cl)c1ccccc1Cl,inconclusive: -39.5%,,
CCOc1ccc(C(C)NC(=O)c2ccccc2F)cc1 (stereo unspecified),,,"inconclusive: 23.1 µM [activator, partial curve]"
O=C(/C=C/c1ccc(O)c(O)c1)OC(Cc1ccc(O)c(O)c1)C(=O)O (stereo unspecified),inconclusive: 26.6%,,
